Results: paper PMC6594648
Like-named read-outs stand apart in the source and are kept apart here. Results are given in words; binding and its absence hold for the method and conditions named. Binding seen in cells or lysates may run through a third protein. A yes stands for co-enrichment or nearness to the bait. Other partners may have been found.

Amino acid sequences for entries named in this document (tags omitted). Residues count along the entry.
UniProt P10221: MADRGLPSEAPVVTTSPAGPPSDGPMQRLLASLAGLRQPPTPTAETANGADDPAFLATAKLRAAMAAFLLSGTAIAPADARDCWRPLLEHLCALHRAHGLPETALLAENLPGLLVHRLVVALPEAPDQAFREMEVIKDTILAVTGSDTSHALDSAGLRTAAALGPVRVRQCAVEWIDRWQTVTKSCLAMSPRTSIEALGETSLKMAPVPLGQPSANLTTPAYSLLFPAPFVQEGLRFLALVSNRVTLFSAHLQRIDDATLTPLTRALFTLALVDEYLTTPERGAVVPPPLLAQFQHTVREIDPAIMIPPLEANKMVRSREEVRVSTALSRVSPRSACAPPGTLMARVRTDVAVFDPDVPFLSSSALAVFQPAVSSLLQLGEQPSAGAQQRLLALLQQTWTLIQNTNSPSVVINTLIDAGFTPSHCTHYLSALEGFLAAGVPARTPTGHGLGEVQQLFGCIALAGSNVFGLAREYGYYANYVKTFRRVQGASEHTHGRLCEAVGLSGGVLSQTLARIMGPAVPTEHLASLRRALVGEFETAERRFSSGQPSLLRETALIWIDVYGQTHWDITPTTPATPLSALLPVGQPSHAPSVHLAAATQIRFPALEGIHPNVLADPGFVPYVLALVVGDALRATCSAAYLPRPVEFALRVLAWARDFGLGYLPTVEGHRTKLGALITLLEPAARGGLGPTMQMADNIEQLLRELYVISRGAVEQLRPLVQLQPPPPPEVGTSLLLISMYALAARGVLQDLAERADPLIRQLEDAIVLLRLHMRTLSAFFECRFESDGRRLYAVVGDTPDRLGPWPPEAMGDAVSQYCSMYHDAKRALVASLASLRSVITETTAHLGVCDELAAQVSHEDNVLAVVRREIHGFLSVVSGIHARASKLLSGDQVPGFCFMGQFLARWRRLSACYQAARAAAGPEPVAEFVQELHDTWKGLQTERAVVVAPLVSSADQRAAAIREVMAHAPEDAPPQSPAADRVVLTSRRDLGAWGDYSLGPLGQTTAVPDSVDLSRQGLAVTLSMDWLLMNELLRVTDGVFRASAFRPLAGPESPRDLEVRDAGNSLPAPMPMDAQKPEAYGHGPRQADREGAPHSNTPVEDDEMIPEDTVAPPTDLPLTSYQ
UniProt P04488, residues 21-550: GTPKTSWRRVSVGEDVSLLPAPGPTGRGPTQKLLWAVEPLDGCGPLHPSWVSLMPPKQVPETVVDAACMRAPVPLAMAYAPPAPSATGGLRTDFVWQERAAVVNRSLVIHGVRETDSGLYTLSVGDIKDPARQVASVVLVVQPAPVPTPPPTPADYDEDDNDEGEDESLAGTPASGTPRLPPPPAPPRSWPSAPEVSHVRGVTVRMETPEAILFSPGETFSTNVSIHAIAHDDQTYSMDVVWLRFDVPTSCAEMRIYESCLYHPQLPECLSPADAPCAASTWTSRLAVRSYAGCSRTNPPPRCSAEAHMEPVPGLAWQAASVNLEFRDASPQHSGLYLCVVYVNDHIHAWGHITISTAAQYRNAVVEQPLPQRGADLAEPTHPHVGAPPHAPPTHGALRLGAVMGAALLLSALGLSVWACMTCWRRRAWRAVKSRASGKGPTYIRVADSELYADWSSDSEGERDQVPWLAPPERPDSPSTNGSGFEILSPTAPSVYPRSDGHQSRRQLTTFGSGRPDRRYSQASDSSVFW

What was measured:
[1] = target: pUL37 tagged with enhanced green fluorescent protein (pUL37-EGFP) (herpes simplex virus type 1 (HSV1), strain 17+) (UniProt P10221); assay: affinity purification with mass spectrometry; pUL37-EGFP isolated with anti-GFP antibodies on magnetic beads from cytoplasmic lysates of HSV1-infected primary human fibroblasts at 8 and 20 HPI; EGFP-only virus as control (20 HPI); 20 mM HEPES-KOH pH 7.4, 0.11 M potassium acetate, 250 mM NaCl, 0.5% NP-40, 0.1% Tween 20; TMT quantification, two replicates; enrichment of >=2-fold over the control counted as specific
[2] = target: pUL37 tagged with enhanced green fluorescent protein (pUL37-EGFP) (herpes simplex virus type 1 (HSV1), strain 17+) (UniProt P10221); assay: as above; remark: listed apart in the source

Molecule | binding [1] | binding [2]
pUS8 (glycoprotein E, gE) (from UniProt P04488 21-550) | binds | –
pUS10 (protein, UniProt P06486 1-312) MIKRRGNVEIRVYYESVRTLRSRSHLKPSDRQQSPGHRVFPGSPGFRDHPENLGNPEYRELPETPGYRVTPGIHDNPGLPGSPGLPGSPGLPGSPGPHAPPANHVRLAGLYSPGKYAPLASPDPFSPQHGAYARARVGIHTAVRVPPTGSPTHTHLRQDPGDEPTSDDSGLYPLDARALAHLVMLPADHRAFFRTVVEVSRMCAANVRDPPPPATGAMLGRHARLVHTQWLRANQETSPLWPWRTAAINFITTMAPRVQTHRHMHDLLMACAFWCCLTHASTCSYAGLYSTHCLHLFGAFGCGDPALTPPLC | – | binds
